Measurements reported in PubChem BioAssay AID652272 (Drosophila RNAi Screening Center, 2013).
Purpose: 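Genome-wide knock-down search for components of Hedgehog signalling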 (primary screen). System: Drosophila clone 8 (Cl8) cells. Knock-down reagent: long dsRNA against Drosophila genes. Detection: 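Plate reader light from a firefly reporter under a ptc promoter fragment that responds to Hedgehog, with Renilla light as transfection reference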. Reading the numbers: firefly Hh reporter signal: higher = more ptc reporter light; Renilla reference signal: higher = more Renilla control light. Hit rule: 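Hit when the z-score averaged over two replicates is under -2 or over +3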. Meaning of the calls: active = hit: reporter lowered or raised; inactive = not a hit.
The deposit covers about 21,000 reagents; this is a random part of those with a known target gene and a result. In the full data, 503 (2.4%) are marked active. 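Raw plate light values, not normalised; calls rest on replicate z-scores that were not deposited; hits include reporter decreases as well as increases.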 Names joined by + are all predicted targets of the reagent. The record does not give: the amount of reagent, the time to read-out.

The first 2 entries, ahead of the listing:
| Target gene | amplicon | firefly Hh reporter signal, replicate 1 | firefly Hh reporter signal, replicate 2 | firefly Hh reporter signal, replicate 3 | Renilla reference signal, replicate 1 | Renilla reference signal, replicate 2 | outcome |
| --- | --- | --- | --- | --- | --- | --- | --- |
| ec (echinus) | DRSC17285 | 4.53e5 | 2.18e5 | – | 20007 | 4481 | inactive |
| ec (echinus) | DRSC17286 | 3.87e5 | 2.27e5 | – | 17568 | 4845 | inactive |

The list itself, repeating the preview:
| Target gene | amplicon | firefly Hh reporter signal, replicate 1 | firefly Hh reporter signal, replicate 2 | firefly Hh reporter signal, replicate 3 | Renilla reference signal, replicate 1 | Renilla reference signal, replicate 2 | outcome |
| --- | --- | --- | --- | --- | --- | --- | --- |
| ec (echinus) | DRSC17285 | 4.53e5 | 2.18e5 | – | 20007 | 4481 | inactive |
| ec (echinus) | DRSC17286 | 3.87e5 | 2.27e5 | – | 17568 | 4845 | inactive |
| ec (echinus) | DRSC18658 | 58501 | 1.25e5 | – | 2243 | 5586 | inactive |
| Ugt36F1 (UDP-glycosyltransferase family 36 member F1) | DRSC02601 | 83365 | 57047 | – | 2038 | 5140 | inactive |
| Klf15 (Kruppel-like factor 15) | DRSC17742 | 59849 | 1.53e5 | – | 2197 | 5777 | inactive |
| PGRP-SC1b (Peptidoglycan recognition protein SC1b) | DRSC07215 | 66497 | 36163 | – | 2899 | 1544 | inactive |
| Grl36b (Gustatory receptor-like 36b) | DRSC01627 | 1.03e5 | 2.07e5 | – | 2490 | 10069 | inactive |
| CG12818 | DRSC14556 | 75904 | 99472 | – | 3120 | 2859 | inactive |
| CG32809 | DRSC18507 | 2.12e5 | 5.82e5 | 1.04e5 | 4981 | 27841 | inactive |
| CG32809 | DRSC18592 | 1.13e5 | 93447 | – | 2752 | 3378 | inactive |
| Cfp1 (CXXC finger protein 1) | DRSC18128 | 43453 | 1.55e5 | – | 1251 | 6336 | inactive |
| rst (roughest) | DRSC17243 | 4.87e5 | 1.70e5 | – | 25788 | 3845 | inactive |
| rst (roughest) | DRSC18828 | 1.24e5 | 3.08e5 | – | 5313 | 11722 | inactive |
| CG13445 | DRSC09992 | 68578 | – | – | 5869 | 4133 | active |
| CG13243 | DRSC01920 | 92560 | 53492 | – | 2147 | 3995 | inactive |
| CG16813 | DRSC02520 | 1.98e5 | 68544 | – | 4951 | 5457 | inactive |
| CG2291 | DRSC06836 | 87629 | 51879 | – | 2134 | 3802 | inactive |
| Esp (Epidermal stripes and patches) | DRSC16664 | 5.35e5 | 97600 | – | 25153 | 3035 | inactive |
| CG30015 | DRSC05241 | 1.76e5 | 2.45e5 | – | 4429 | 10609 | inactive |
| CG30015 | DRSC07027 | 55828 | 38912 | – | 2564 | 1809 | inactive |
| CG30015 | DRSC07028 | 77940 | 46434 | – | 1866 | 3792 | inactive |
| CG7650 | DRSC10898 | 1.94e5 | – | – | 10920 | 5970 | inactive |
| CG8312 | DRSC16406 | 71757 | 1.40e5 | – | 1433 | 4005 | inactive |
| CG32023 | DRSC08946 | 1.27e5 | 2.53e5 | – | 4376 | 12000 | inactive |
| Skp2 (S-phase kinase-associated protein 2) | DRSC12329 | 1.29e5 | 1.27e5 | – | 5333 | 4459 | inactive |
| CG15824 | DRSC00473 | 1.67e5 | 1.08e5 | – | 3632 | 2756 | inactive |
| ver (verrocchio) | DRSC10125 | 30809 | 62453 | 87804 | 6813 | 5883 | inactive |
| Gr64d + Gr64e | DRSC08446 | 1.19e5 | 83462 | – | 4501 | 6008 | inactive |
| L (retired record) | DRSC05966 | 66626 | 48080 | – | 2035 | 4416 | inactive |
| L (retired record) | DRSC05967 | 52068 | 23319 | – | 1419 | 2251 | inactive |
| janA (janus A) | DRSC16972 | 1.08e5 | 1.20e5 | – | 3539 | 3666 | inactive |
| Lime (Linking immunity and metabolism) | DRSC06752 | 1.47e5 | 69661 | – | 3861 | 624 | inactive |
| att-ORFB + DPCoAC | DRSC15556 | 6.37e5 | 62012 | – | 37644 | 1924 | inactive |
| Mcm2 (Minichromosome maintenance 2) | DRSC16734 | 86580 | 1.35e5 | – | 1960 | 3728 | inactive |
| RhoBTB (Rho-related BTB domain containing) | DRSC11877 | 73484 | 56656 | – | 2771 | 2320 | inactive |
| Gr97a (Gustatory receptor 97a) | DRSC13802 | 42835 | 1.84e5 | – | 10939 | 4228 | inactive |
| CG2267 | DRSC15435 | 78912 | 99748 | – | 2343 | 2456 | inactive |
| Drip | DRSC07405 | 96427 | 81920 | – | 2249 | 5347 | inactive |
| CG9547 | DRSC03260 | 93385 | 1.18e5 | – | 4117 | 3105 | inactive |
| CG30325 | DRSC05685 | 1.37e5 | 3.20e5 | – | 3809 | 12224 | inactive |
| nbs | DRSC11373 | 21600 | 43229 | 50839 | 4802 | 3414 | inactive |
| Zyx (Zyxin) | DRSC17186 | 4.73e5 | 1.83e5 | – | 23755 | 4632 | inactive |
| CG13252 | DRSC11700 | 91644 | 95144 | – | 3305 | 2777 | inactive |
| Cyp18a1 (Cytochrome P450 18a1) | DRSC20235 | 69665 | 2.79e5 | – | 1497 | 11334 | inactive |
| CG2812 | DRSC04319 | 71565 | 53506 | – | 2112 | 4476 | inactive |
| Nepl17 (Neprilysin-like 17) | DRSC14880 | 83691 | 1.05e5 | – | 2812 | 3649 | inactive |
| HDAC11 (Histone deacetylase 11) | DRSC14280 | 3.93e5 | 85671 | – | 18918 | 2621 | inactive |
| Vha26 (Vacuolar H[+]-ATPase 26kD subunit) | DRSC12371 | 1.17e5 | 51787 | – | 4480 | 2112 | inactive |
| sut1 (sugar transporter 1) | DRSC07700 | 1.08e5 | 71386 | – | 4272 | 2948 | inactive |
| CG7794 | DRSC16313 | 4.90e5 | 79859 | – | 25728 | 2114 | inactive |
| Srpk79D (Serine-arginine protein kinase at 79D) | DRSC11668 | 1.21e5 | 1.15e5 | – | 5825 | 4533 | inactive |
| Srpk79D (Serine-arginine protein kinase at 79D) | DRSC11856 | 84210 | 1.22e5 | – | 2133 | 3458 | inactive |
| CG30075 | DRSC05484 | 93026 | 1.81e5 | – | 2768 | 8208 | inactive |
| Reepl1 (Receptor accessory protein like 1) | DRSC19418 | 1.20e5 | 2.17e5 | – | 4649 | 9188 | inactive |
| CG13326 | DRSC06363 | 98218 | 42416 | – | 3780 | 1204 | inactive |
| Nepl6 (Neprilysin-like 6) | DRSC03242 | 4.97e5 | 88020 | – | 4173 | 4173 | inactive |
| Atxn7 (Ataxin 7) | DRSC00726 | 1.28e5 | 97032 | – | 5589 | 4506 | inactive |
| CG34161 | DRSC01132 | 4.82e5 | 2.37e5 | – | 22625 | 8522 | inactive |
| CG11619 | DRSC09849 | 88393 | 1.62e5 | – | 3162 | 4740 | inactive |
| Sou (Souji) | DRSC04356 | 88880 | 65942 | – | 1985 | 5476 | inactive |
| CCAP-R (Crustacean cardioactive peptide receptor) | DRSC14891 | 4.86e5 | 96902 | – | 26048 | 7350 | inactive |
| CCAP-R (Crustacean cardioactive peptide receptor) | DRSC15967 | 5.72e5 | 1.03e5 | – | 29525 | 7844 | inactive |
| Vha16-2 (Vacuolar H[+] ATPase 16kD subunit 2) | DRSC10873 | 72544 | 45869 | 44596 | 3591 | 3129 | inactive |
| CG7203 | DRSC03026 | 96693 | 44759 | – | 2576 | 4500 | inactive |
| CG11710 | DRSC20485 | 85252 | 2.39e5 | – | 2086 | 8971 | inactive |
| Dpy-30L2 (Dpy-30-like 2) | DRSC08205 | 85085 | 63456 | – | 2710 | 4520 | inactive |
| CG13698 | DRSC10047 | 60187 | 27378 | – | 2944 | 1146 | inactive |
| CG17059 | DRSC06654 | 1.17e5 | 63224 | – | 3243 | 4928 | inactive |
| Calr (Calreticulin) | DRSC16614 | 39783 | 46714 | – | 1749 | 2384 | active |
| CG8004 | DRSC10947 | 71867 | 71376 | – | 3440 | 2962 | inactive |
| beta3GalTII (beta-1,3-Galactosyltransferase II) | DRSC07253 | 78816 | 49664 | – | 1530 | 3936 | inactive |
| CG4733 | DRSC15634 | 6.05e5 | 1.20e5 | – | 30397 | 3072 | inactive |
| CG30413 | DRSC04001 | 1.35e5 | 1.92e5 | – | 2940 | 8068 | inactive |
